This test concerns the target HA-TrkA Kinase-dead (UniProt P04629). The experiment in a line: proximity ligation; in situ PLA on paraformaldehyde-fixed cells without membrane permeabilization; rabbit anti-HA or rabbit anti-TrkA and mouse anti-CD44; cells untreated or treated with NGF (16 nM) for 5 or 30 min, with DMSO or K252a (10 nM) pre-incubation.

Chains of the proteins cited; added tags and fusions are not shown. Lines headed by an entry give the natural chain unless they say otherwise; changes in a name come on top. Residues count along the entry.
UniProt P04629: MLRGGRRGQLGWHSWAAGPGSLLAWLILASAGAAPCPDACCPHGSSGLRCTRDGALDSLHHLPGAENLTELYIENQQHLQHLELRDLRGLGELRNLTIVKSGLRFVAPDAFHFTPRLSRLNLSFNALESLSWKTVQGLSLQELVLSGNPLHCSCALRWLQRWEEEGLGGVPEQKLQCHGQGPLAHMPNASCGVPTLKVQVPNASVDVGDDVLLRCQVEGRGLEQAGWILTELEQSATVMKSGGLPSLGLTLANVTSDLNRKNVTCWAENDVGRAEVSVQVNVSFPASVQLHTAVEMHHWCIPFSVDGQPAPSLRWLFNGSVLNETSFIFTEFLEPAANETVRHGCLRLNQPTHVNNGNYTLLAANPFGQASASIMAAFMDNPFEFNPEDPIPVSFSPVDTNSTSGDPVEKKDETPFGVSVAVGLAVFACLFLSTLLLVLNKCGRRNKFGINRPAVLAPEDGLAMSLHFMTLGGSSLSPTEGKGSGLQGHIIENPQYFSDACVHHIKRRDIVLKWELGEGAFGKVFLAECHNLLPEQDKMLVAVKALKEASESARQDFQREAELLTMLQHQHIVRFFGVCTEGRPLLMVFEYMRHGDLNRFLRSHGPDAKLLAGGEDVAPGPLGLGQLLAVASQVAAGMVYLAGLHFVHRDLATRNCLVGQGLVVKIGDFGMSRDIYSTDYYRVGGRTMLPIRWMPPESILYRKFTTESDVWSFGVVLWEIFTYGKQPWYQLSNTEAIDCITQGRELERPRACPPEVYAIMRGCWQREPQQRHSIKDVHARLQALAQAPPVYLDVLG
UniProt P16070, residues 21-742: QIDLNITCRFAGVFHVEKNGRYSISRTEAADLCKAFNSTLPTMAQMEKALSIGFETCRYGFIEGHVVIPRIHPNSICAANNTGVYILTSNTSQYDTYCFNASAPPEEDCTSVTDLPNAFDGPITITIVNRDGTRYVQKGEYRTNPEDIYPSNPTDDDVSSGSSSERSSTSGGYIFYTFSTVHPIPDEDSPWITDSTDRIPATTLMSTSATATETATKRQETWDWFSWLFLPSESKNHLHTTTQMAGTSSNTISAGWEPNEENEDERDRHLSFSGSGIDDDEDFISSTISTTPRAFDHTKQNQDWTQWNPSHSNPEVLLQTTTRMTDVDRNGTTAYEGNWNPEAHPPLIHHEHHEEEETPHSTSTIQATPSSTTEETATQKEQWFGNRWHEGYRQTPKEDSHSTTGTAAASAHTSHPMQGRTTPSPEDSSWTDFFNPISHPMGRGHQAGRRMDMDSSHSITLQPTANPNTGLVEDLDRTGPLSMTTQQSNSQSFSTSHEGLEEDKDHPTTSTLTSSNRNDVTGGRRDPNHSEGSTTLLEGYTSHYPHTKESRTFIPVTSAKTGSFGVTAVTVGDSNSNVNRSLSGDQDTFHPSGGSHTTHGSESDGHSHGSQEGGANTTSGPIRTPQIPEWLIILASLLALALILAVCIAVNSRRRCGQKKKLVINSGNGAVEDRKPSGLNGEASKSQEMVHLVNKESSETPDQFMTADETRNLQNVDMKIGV

Results are given in words; binding and its absence hold for the method and conditions named. Binding seen in cells or lysates may run through a third protein. Binding can be weak; no strength is given.

For “CD44 antigen (from UniProt P16070 21-742) (receptor)”, the binding entry is reported as “binds”.

Values taken from article PMC4496399.
